Data as given in patent publication US20190263931A1 (IMMUNOMETABOLISM DEVELOPMENT, published 2019).

Key:
rabbit MCT1 (rabbit) [1] = assay: staining of rabbit red blood cells with MCT1 Ab1 (FIG. 18B)
[2] = molecular target: cynomolgus MCT1 (cynomolgus monkey); assay: staining of purified cynomolgus red blood cells (FIG. 18A)
[3] = molecular target: cynomolgus MCT1 (cynomolgus monkey); assay: flow cytometry, red blood cells of single cynomolgus monkeys
rabbit MCT1 (rabbit) [4] = assay: flow cytometry, rabbit red blood cells
[5] = molecular target: cynomolgus MCT1 (cynomolgus monkey); assay: flow cytometry on PBMCs (FIG. 12A-D)
rabbit MCT1 (rabbit) [6] = assay: flow cytometry on PBMCs (FIG. 12A-D)
rabbit MCT1 (rabbit) [7] = assay: flow cytometry on rabbit PBMCs (FIG. 12C)
rabbit MCT1 (rabbit) [8] = assay: staining of rabbit red blood cells (FIG. 18B)
rabbit MCT1 (rabbit) [9] = assay: flow cytometry, rabbit PBMC (live gate), resting and stimulated
[10] = molecular target: cynomolgus MCT1 (cynomolgus monkey); assay: flow cytometry, cynomolgus PBMC (live gate), resting and stimulated
[11] = molecular target: cynomolgus MCT1 (cynomolgus monkey); assay: flow cytometry on cynomolgus PBMCs (FIG. 12B)
[12] = molecular target: cynomolgus MCT1 (cynomolgus monkey); assay: flow cytometry, purified cynomolgus red blood cells
[13] = molecular target: cynomolgus MCT1 (cynomolgus monkey); assay: staining of cynomolgus red blood cells with MCT1 Ab1 (FIG. 18A)

Measured: binding

B1: MCT1 Ab1 (antibody, V domains shown)
VH: QVQLKATGPGLVQPTQTLSITCTVSGFSLTNYHLQWVRQTPGKGLEWMGFIRSSGNTEYNSEFKSRLSISRDTSKNQVFLKMNSLKTDDTGVYYCARNSWYHGTYYSPGYYVMDAWGQGASVTVSS
VL: NIHLTQSPSLLSASVGDRVTLSCKGSQNINNYLAWFQQKFGETPKLLIYNRHNLQTGIPSRFSGSGSGTDYTLTINSLQPEDVATYFCYQYSDGYTFGAGTKLELK
notes: also called INX310; Rat Anti-MCT1 antibody
binds: all assays above

No constants are given. Whether binding was seen depends on the method and setting. A result given as binding can be weak or reduced; the word gives no strength.
